Assay results from the supplement of paper PMC8104966.
The other results are listed elsewhere or left out. Single values are uncertain here, since repeats match poorly.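 Fusion between ACE2-bearing and full-length-spike-bearing U2OS cells was measured by imaging as the percentage of nuclei with both cell types' fluorescent markers. An inhibitory hit is a non-toxic compound whose fusion z-score is below -3, more than three standard deviations beneath the plate's DMSO wells.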

The compounds below were run on U2OS ACE2 x SARS-CoV-2 spike co-culture (assay: cell-cell fusion (fraction fused) z-score vs plate DMSO control; higher = more fusion). Settings: 30 µM; 5 h; toxicity class: non-toxic, passed QC.

| Compound | cell-cell fusion (z-score) |
| --- | --- |
| CC(=O)O.N=C(N)NCCC[C@@H](NC(=O)[C@@H](N)Cc1ccc(O)cc1)C(=O)O | inactive: 2.35 |
| Cl.NC12CC3CC(CC(C3)C1)C2 | inactive: 1.93 |
| Cl.NC12CC3CC(CC(C3)C1)C2 [Amantadine hydrochloride] | inactive: 2.17 |
| NC1(C(=O)O)CCCC1 | inactive: 3.59 |
| CN1CCN(c2c(F)cc3c(=O)c(C(=O)O)cn4c3c2SCC4)CC1 | inactive: 3.12 |
| CCNC1(c2cccs2)CCCCC1=O.Cl (stereo unspecified) | inactive: 2.07 |
| Clc1ccc(CO/N=C(\Cn2ccnc2)c2ccc(Cl)cc2Cl)c(Cl)c1.O=[N+]([O-])O | inactive: 1.09 |
| C[C@H]1O[C@H](O[C@H]2[C@H](O)[C@@H](O)[C@@H](O)[C@H](O)[C@@H]2O)[C@@H](N)C[C@@H]1NC(=N)C(=O)O.Cl | inactive: 1.62 |
| CN1C(=O)OC(C)(C)C1=O | inactive: 1.43 |
| CCC(=O)OCC(=O)[C@@]1(OC(=O)CC)[C@@H](C)C[C@H]2[C@@H]3CCC4=CC(=O)C=C[C@]4(C)[C@@]3(F)[C@@H](O)C[C@@]21C [Betamethasone dipropionate] | inactive: 3.33 |
| CC[C@@]1(O)C(=O)OCc2c1cc1n(c2=O)Cc2cc3c(CN(C)C)c(O)ccc3nc2-1.Cl [Topotecan HCl] | inactive: 1.57 |
| Cl.O=S(=O)(c1cccc2c(I)cccc12)N1CCCNCC1 | inactive: -0.446 |
| NCCCS(=O)(=O)O | inactive: 0.908 |
| COc1ccc2c(Oc3ccc(NC(=O)c4c(C)n(CC(C)(C)O)n(-c5ccccc5)c4=O)nc3)ccnc2c1 | inactive: 0.772 |
| COc1ccc2[nH]cc(CCN)c2c1.Cl [O-Methylserotonin hydrochloride] | inactive: 1.91 |
| CN(C)C(=O)C(CCN1CCC(O)(c2ccc(Cl)cc2)CC1)(c1ccccc1)c1ccccc1.Cl [Loperamide hydrochloride] | inactive: 1.82 |
| CN(C)C(=O)C(CCN1CCC(O)(c2ccc(Cl)cc2)CC1)(c1ccccc1)c1ccccc1.Cl | inactive: 1.07 |
| Cc1ncc(CO)c(CO)c1O.Cl [Pyridoxine hydrochloride] | inactive: 0.0577 |
| O=C1C=CC(=C(c2ccc(O)cc2)c2ccc(O)cc2)C=C1 | inactive: 3.22 |
| CC(C)C[C@H](NC(=O)CNC(=O)c1cc(Cl)ccc1Cl)B(O)O | inactive: 1.62 |
| C[C@](N)(Cc1ccc(O)cc1)C(=O)O [L-alpha-Methyl-p-tyrosine] | inactive: 2.47 |
| C[C@](N)(Cc1ccc(O)cc1)C(=O)O [alpha-METHYL-L-TYROSINE] | inactive: 2.22 |

| Compound | cell-cell fusion (z-score) |
| --- | --- |
| CC1=C(C(=O)O)N2C(=O)[C@@H](NC(=O)[C@H](N)c3ccc(O)cc3)[C@H]2SC1 [Cefadroxil] | inactive: 1.04 |
| Nc1nc(Nc2ccc(S(N)(=O)=O)cc2)nn1C(=O)c1c(F)cccc1F | inactive: 2.85 |
| O=c1c(-c2ccc(O)cc2)coc2c(C3O[C@H](CO)[C@@H](O)[C@H](O)[C@H]3O)c(O)ccc12 (stereo partly specified) | inactive: 3.08 |
| O=C(O)C1CN(CCCP(=O)(O)O)CCN1 (racemic) | inactive: 2.82 |
| CC(C)C[C@H](N)C(=O)N[C@@H](C)C(=O)O | inactive: 2.63 |
| CCCCc1nc(Cl)c(CO)n1Cc1ccc(-c2ccccc2-c2nnn[n-]2)cc1.[K+] [Losartan potassium] | inactive: 3.21 |
| NC(=O)c1ncn([C@@H]2O[C@H](CO)[C@@H](O)[C@H]2O)n1 [Ribavirin] | inactive: -0.721 |
| C=C1C[C@]23C[C@@]1(O)CC[C@H]2[C@@]12C=C[C@H](O)[C@](C)(C(=O)O1)[C@H]2[C@@H]3C(=O)O | inactive: 1.44 |
| CN(C/C=C/C#CC(C)(C)C)Cc1cccc2ccccc12 [Terbinafine] | inactive: 3.04 |
| C=CCc1cccc(/C=N/NC(=O)CN2CCN(Cc3ccccc3)CC2)c1O | inactive: 1.44 |
| COc1cccc2c1[C@@H]1CN(CCCCn3c(=O)[nH]c4c(sc5ncc(-c6ccccc6)nc54)c3=O)C[C@@H]1CO2.Cl [Fiduxosin hydrochloride] | inactive: -1.86 |
| CCCC(CCC)C(=O)O [Valproic Acid] | inactive: 3.09 |
| CC[C@H]1OC(=O)[C@H](C)[C@@H](O[C@H]2C[C@@](C)(OC)[C@@H](O)[C@H](C)O2)[C@H](C)[C@@H](O[C@@H]2O[C@H](C)C[C@H](N(C)C)[C@H]2O)[C@](C)(O)C[C@@H](C)CN[C@H](C)[C@@H](O)[C@]1(C)O [Azathramycin] | inactive: 1.99 |
| NNC(=O)c1ccc(O)cc1 [4-Hydroxybenzhydrazide] | inactive: 2.72 |
| COc1ccc(-c2cc(=O)c3c(O)cc(O[C@@H]4O[C@H](CO[C@@H]5O[C@@H](C)[C@H](O)[C@@H](O)[C@H]5O)[C@@H](O)[C@H](O)[C@H]4O)cc3o2)cc1O | inactive: 2.04 |
| CCN(CC)C(=O)C1(c2ccccc2)CC1CN.Cl (stereo unspecified) | inactive: 2.11 |
| NC(C(=O)N[C@@H]1C(=O)N2C(C(=O)O)=C(Cl)CS[C@H]12)c1ccccc1 (stereo partly specified) [Cefaclor] | inactive: 2.77 |
| O=[N+]([O-])c1cn2c(n1)OC[C@@H](OCc1ccc(OC(F)(F)F)cc1)C2 [Pretomanid] | inactive: 0.52 |
| COc1ccc(-c2c(O)c3c(OC)c4c(cc3oc2=O)OC(C)(C)C=C4)cc1 | inactive: 1.23 |
| CC1(C)S[C@@H]2[C@H](NC(=O)[C@H](NC(=O)N3CCNC3=O)c3ccccc3)C(=O)N2[C@H]1C(=O)[O-].[Na+] [Azlocillin sodium] | inactive: 1.91 |
| CC(=O)NC[C@H]1CN(c2ccc(N3CCOCC3)c(F)c2)C(=O)O1 [Linezolid] | inactive: 4.1 |
| C=NC(C(=O)NC1C(=O)N2C1SC(C)(C)C2C(=O)[O-])c1ccccc1.[Na+] (stereo unspecified) | inactive: 1.3 |

| Compound | cell-cell fusion (z-score) |
| --- | --- |
| COc1ccc2c(O[C@@H]3C[C@H]4C(=O)N[C@]5(C(=O)NS(=O)(=O)C6CC6)C[C@H]5/C=C\CCCCN(C)C(=O)[C@@H]4C3)cc(-c3nc(C(C)C)cs3)nc2c1C [Simeprevir] | inactive: 1.91 |
| C=C[C@@](C)(O)CCC1C(=C)C[C@H](O)C2C(C)(C)CCCC12C (stereo partly specified) | inactive: 0.85 |
| CC(=O)O[C@]12CO[C@@H]1C[C@H](O)[C@]1(C)C(=O)[C@H](O)C3=C(C)[C@H](OC(=O)[C@H](O)[C@@H](NC(=O)OC(C)(C)C)c4ccccc4)C[C@](O)([C@H](OC(=O)c4ccccc4)C21)C3(C)C (stereo partly specified) [Docetaxel (Taxotere)] | inactive: 2.04 |
| O=C1CN(/N=C/c2ccc([N+](=O)[O-])o2)C(=O)N1 [Nitrofurantoin] | inactive: 2.39 |
| CC(=O)O[C@]1(C(C)=O)CCC2C3C=C(Cl)C4=CC(=O)[C@@H]5C[C@@H]5[C@]4(C)C3CC[C@@]21C (stereo partly specified) | inactive: 1.5 |
| C[C@@H]1CC(Cl)CC[C@H]1C(=O)OC(C)(C)C (stereo partly specified) | inactive: 2.28 |
| O=c1c(O)c(-c2ccc(O)c(O)c2)oc2c(O[C@@H]3O[C@H](CO)[C@H](O)[C@@H](O)[C@H]3O)c(O)cc(O)c12 | inactive: 1.37 |
| N[C@@H](Cn1oc(=O)[nH]c1=O)C(=O)O [(+)-Quisqualic acid] | inactive: -0.11 |
| OC[C@H]1O[C@@H](O[C@@H]2[C@@H](CO)OC(O)(CO)[C@H]2O)[C@H](O)[C@@H](O)[C@H]1O (stereo partly specified) [Lactulose] | inactive: 3.16 |
| COc1cc(-c2coc3cc(O)c(OC)c(O)c3c2=O)cc(O)c1OC | inactive: 1.61 |
| O=C([O-])c1cc(/N=N/c2ccc(O)c(C(=O)[O-])c2)ccc1O.[Na+].[Na+] [Olsalazine disodium] | inactive: 2.62 |
| C=C1CC[C@H](O)C/C1=C/C=C1\CCC[C@]2(C)[C@@H]([C@H](C)/C=C/[C@H](C)C(C)C)CC[C@@H]12 [Vitamin D2] | inactive: -1.8 |
| COc1cc(CNC(=O)CCCC/C=C\C(C)C)ccc1O [Zucapsaicin] | inactive: 2.23 |
| C[C@@H](O[C@H]1OCCN(Cc2nc(=O)[nH][nH]2)[C@H]1c1ccc(F)cc1)c1cc(C(F)(F)F)cc(C(F)(F)F)c1 [Aprepitant] | active: -11.3 |
| Nc1nc(=O)c2c([nH]1)NC[C@H](CNc1ccc(C(=O)N[C@@H](CCC(=O)[O-])C(=O)[O-])cc1)N2C=O.[Ca+2] [Calcium Levofolinate] | inactive: 2.4 |
| Br.Oc1cc2c(c(Cl)c1O)CCNCC2c1ccccc1 (racemic) [(±)-6-Chloro-PB hydrobromide] | active: -9.67 |
| CO/N=C(\C(=O)N[C@@H]1C(=O)N2C(C(=O)[O-])=C(COC(C)=O)CS[C@H]12)c1csc(N)n1.[Na+] [Cefotaxime sodium] | inactive: 1.81 |
| CC(=O)N[C@@H](CC(=O)O)C(=O)O | inactive: 2.25 |
| O=C1C(O)=C(O)C(=O)C(O)=C1O | inactive: 1.72 |
| CC1(C)O[C@@H]2[C@@H](CO[C@@]3(COS(N)(=O)=O)OC(C)(C)O[C@@H]23)O1 [Topiramate] | inactive: 2.77 |
| CN(C)CCC(c1ccc(Br)cc1)c1ccccn1.O=C(O)/C=C\C(=O)O (stereo unspecified) [Brompheniramine hydrogen maleate] | inactive: 2.74 |
| COc1ccc(CCN(C)CCc2ccc(OC)c(OC)c2)cc1OC.Cl [YS-035 hydrochloride] | inactive: 3.52 |

Another view of some results above.
Compound	cell-cell fusion (z-score)
C=C[C@@](C)(O)CCC1C(=C)C[C@H](O)C2C(C)(C)CCCC12C (stereo partly specified)	inactive: 0.85
CC(=O)O[C@]12CO[C@@H]1C[C@H](O)[C@]1(C)C(=O)[C@H](O)C3=C(C)[C@H](OC(=O)[C@H](O)[C@@H](NC(=O)OC(C)(C)C)c4ccccc4)C[C@](O)([C@H](OC(=O)c4ccccc4)C21)C3(C)C (stereo partly specified) [Docetaxel (Taxotere)]	inactive: 2.04
O=C1CN(/N=C/c2ccc([N+](=O)[O-])o2)C(=O)N1 [Nitrofurantoin]	inactive: 2.39
CC(=O)O[C@]1(C(C)=O)CCC2C3C=C(Cl)C4=CC(=O)[C@@H]5C[C@@H]5[C@]4(C)C3CC[C@@]21C (stereo partly specified)	inactive: 1.5
C[C@@H]1CC(Cl)CC[C@H]1C(=O)OC(C)(C)C (stereo partly specified)	inactive: 2.28
O=c1c(O)c(-c2ccc(O)c(O)c2)oc2c(O[C@@H]3O[C@H](CO)[C@H](O)[C@@H](O)[C@H]3O)c(O)cc(O)c12	inactive: 1.37
N[C@@H](Cn1oc(=O)[nH]c1=O)C(=O)O [(+)-Quisqualic acid]	inactive: -0.11
OC[C@H]1O[C@@H](O[C@@H]2[C@@H](CO)OC(O)(CO)[C@H]2O)[C@H](O)[C@@H](O)[C@H]1O (stereo partly specified) [Lactulose]	inactive: 3.16
COc1cc(-c2coc3cc(O)c(OC)c(O)c3c2=O)cc(O)c1OC	inactive: 1.61
O=C([O-])c1cc(/N=N/c2ccc(O)c(C(=O)[O-])c2)ccc1O.[Na+].[Na+] [Olsalazine disodium]	inactive: 2.62
C=C1CC[C@H](O)C/C1=C/C=C1\CCC[C@]2(C)[C@@H]([C@H](C)/C=C/[C@H](C)C(C)C)CC[C@@H]12 [Vitamin D2]	inactive: -1.8
COc1cc(CNC(=O)CCCC/C=C\C(C)C)ccc1O [Zucapsaicin]	inactive: 2.23
C[C@@H](O[C@H]1OCCN(Cc2nc(=O)[nH][nH]2)[C@H]1c1ccc(F)cc1)c1cc(C(F)(F)F)cc(C(F)(F)F)c1 [Aprepitant]	active: -11.3
Nc1nc(=O)c2c([nH]1)NC[C@H](CNc1ccc(C(=O)N[C@@H](CCC(=O)[O-])C(=O)[O-])cc1)N2C=O.[Ca+2] [Calcium Levofolinate]	inactive: 2.4
Br.Oc1cc2c(c(Cl)c1O)CCNCC2c1ccccc1 (racemic) [(±)-6-Chloro-PB hydrobromide]	active: -9.67
CO/N=C(\C(=O)N[C@@H]1C(=O)N2C(C(=O)[O-])=C(COC(C)=O)CS[C@H]12)c1csc(N)n1.[Na+] [Cefotaxime sodium]	inactive: 1.81
CC(=O)N[C@@H](CC(=O)O)C(=O)O	inactive: 2.25
O=C1C(O)=C(O)C(=O)C(O)=C1O	inactive: 1.72
CC1(C)O[C@@H]2[C@@H](CO[C@@]3(COS(N)(=O)=O)OC(C)(C)O[C@@H]23)O1 [Topiramate]	inactive: 2.77
